From patent US20140371160A1
No constants are given. Whether binding was seen depends on the method and setting. Some entries that bind do so weakly or less than the wild type.

Chains of the proteins cited; added tags and fusions are not shown. Lines headed by an entry give the natural chain unless they say otherwise; changes in a name come on top. Residues count along the entry.
UniProt P00772, residues 27-266: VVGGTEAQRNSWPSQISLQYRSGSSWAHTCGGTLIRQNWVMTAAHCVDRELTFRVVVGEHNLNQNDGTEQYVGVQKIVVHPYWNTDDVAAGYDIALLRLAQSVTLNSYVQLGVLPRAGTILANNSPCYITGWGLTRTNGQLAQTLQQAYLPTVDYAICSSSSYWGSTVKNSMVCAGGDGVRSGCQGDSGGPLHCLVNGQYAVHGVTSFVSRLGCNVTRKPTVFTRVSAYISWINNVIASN
UniProt P01009: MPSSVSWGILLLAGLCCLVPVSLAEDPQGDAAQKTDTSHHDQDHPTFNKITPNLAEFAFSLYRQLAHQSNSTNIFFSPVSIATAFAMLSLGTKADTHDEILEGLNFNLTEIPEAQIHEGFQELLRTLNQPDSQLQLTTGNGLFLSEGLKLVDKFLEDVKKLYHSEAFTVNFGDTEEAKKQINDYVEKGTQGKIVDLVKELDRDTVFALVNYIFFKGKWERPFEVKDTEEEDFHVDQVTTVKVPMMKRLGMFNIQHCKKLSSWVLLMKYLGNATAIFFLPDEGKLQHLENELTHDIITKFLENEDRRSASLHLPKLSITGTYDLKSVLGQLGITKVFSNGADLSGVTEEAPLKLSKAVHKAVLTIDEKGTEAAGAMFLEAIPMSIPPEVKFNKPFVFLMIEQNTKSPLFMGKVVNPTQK

Biological target: Porcine pancreatic elastase (Calbiochem, Cat. 324682) (porcine) (UniProt P00772)
Assay: elastase inhibition kinetics, AAA-pNA substrate

Alpha-1 antitrypsin variant AT9N (glutamine at the 9th position substituted with asparagine), expressed in CHO-K1 cells (from UniProt P01009 25-418)
binding: binds
